Consider two substances from article PMC5629025 (2017).

The chains behind the UniProt entries cited, without tags or fusion partners.
UniProt P10275: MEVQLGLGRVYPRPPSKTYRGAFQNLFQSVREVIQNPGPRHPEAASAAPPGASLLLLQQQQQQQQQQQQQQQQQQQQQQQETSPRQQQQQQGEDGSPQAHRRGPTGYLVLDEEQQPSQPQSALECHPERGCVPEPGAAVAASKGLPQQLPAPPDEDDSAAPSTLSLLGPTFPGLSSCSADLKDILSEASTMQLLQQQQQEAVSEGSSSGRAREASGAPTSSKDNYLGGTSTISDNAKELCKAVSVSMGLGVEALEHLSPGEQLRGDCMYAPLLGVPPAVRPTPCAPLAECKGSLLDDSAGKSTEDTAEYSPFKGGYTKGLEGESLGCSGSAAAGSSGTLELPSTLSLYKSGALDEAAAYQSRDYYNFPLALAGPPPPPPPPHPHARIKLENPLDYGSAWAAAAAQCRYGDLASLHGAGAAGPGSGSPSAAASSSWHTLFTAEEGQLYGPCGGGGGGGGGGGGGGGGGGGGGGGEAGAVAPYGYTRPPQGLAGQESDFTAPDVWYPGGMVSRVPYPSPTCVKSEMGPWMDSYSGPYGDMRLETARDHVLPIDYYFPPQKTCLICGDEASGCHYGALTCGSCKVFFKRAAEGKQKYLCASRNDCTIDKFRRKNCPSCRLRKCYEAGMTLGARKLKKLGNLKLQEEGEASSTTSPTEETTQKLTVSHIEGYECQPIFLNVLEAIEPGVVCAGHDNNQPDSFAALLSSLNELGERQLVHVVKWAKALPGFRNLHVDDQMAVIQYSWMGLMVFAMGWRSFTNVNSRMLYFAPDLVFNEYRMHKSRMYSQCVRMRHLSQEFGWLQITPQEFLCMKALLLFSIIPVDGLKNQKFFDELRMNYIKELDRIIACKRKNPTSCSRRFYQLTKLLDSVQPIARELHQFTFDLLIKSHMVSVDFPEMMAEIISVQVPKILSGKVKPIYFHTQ
UniProt P0DMV8: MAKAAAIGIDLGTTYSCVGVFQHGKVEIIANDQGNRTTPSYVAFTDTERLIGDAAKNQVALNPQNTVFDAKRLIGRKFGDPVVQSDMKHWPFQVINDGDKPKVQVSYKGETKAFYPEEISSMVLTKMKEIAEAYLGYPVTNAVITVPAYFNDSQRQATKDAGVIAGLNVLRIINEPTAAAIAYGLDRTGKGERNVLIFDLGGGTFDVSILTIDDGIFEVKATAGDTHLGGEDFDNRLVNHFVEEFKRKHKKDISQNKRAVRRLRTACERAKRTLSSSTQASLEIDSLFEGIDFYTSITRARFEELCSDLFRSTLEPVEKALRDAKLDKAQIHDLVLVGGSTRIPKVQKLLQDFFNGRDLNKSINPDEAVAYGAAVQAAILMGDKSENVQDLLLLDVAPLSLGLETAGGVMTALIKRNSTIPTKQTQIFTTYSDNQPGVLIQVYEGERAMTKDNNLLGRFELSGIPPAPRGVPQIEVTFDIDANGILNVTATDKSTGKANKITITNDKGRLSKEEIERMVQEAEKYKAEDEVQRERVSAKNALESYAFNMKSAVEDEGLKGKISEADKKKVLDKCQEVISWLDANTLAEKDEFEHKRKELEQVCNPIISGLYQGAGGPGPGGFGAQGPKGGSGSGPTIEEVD

Assay [1] concerns the target T1, FLAG-, HA-tagged wild-type Bag-1L (human) (UniProt Q99933).
T1 sequence: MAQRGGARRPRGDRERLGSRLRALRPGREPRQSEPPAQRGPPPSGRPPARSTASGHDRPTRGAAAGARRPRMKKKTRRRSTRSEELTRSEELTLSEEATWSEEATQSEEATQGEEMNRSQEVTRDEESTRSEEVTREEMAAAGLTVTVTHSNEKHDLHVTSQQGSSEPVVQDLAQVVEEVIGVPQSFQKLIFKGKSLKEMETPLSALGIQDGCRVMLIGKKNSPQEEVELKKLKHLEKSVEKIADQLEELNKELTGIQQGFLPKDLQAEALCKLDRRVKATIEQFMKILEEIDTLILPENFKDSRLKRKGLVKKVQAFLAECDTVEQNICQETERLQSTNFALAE
The assay can be described thus: affinity purification with mass spectrometry; SILAC RIME (rapid IP-mass spectrometry) of LNCaP cells with FLAG-HA-tagged Bag-1L WT or CMut; anti-HA-tag or rabbit IgG on Dynabeads; forward and reverse labelling.

Assay [2] has as its target T2, FLAG-, HA-tagged BAG domain mutant Bag-1L (K231/232/279A) (human) (UniProt Q99933).
T2 sequence: T1 sequence with K231A, K232A, K279A
Described as above.

Substitutions are numbered along the chain they refer to. No constants are given. Whether binding was seen depends on the method and setting. Binding seen in cells or lysates may run through a third protein. These calls come from enrichment with a bait or labelling near it, and not all partners need be listed. Where a sequence is shown, tags or fusion partners need not be part of it.

With “androgen receptor, endogenous in LNCaP cells (from UniProt P10275 1-920)”, the binding entry in assay [1] was “binds”.

Regarding “Hsp70 (HSPA1), endogenous in LNCaP cells (from UniProt P0DMV8 1-641)”, the binding result in assay [2] and in assay [1] was “binds” throughout.
